# No constants are given. Whether binding was seen depends on the method and setting. Binding seen in cells or lysates may run through a third protein. Some binding calls cover weakened binding; strength is not graded here.
# B1: Smad3 (endogenous), Q8BUN5 1-425 (protein)
# chain: MSSILPFTPPIVKRLLGWKKGEQNGQEEKWCEKAVKSLVKKLKKTGQLDELEKAITTQNVNTKCITIPRSLDGRLQVSHRKGLPHVIYCRLWRWPDLHSHHELRAMELCEFAFNMKKDEVCVNPYHYQRVETPVLPPVLVPRHTEIPAEFPPLDDYSHSIPENTNFPAGIEPQSNIPETPPPGYLSEDGETSDHQMNHSMDAGSPNLSPNPMSPAHNNLDLQPVTYCEPAFWCSISYYELNQRVGETFHASQPSMTVDGFTDPSNSERFCLGLLSNVNRNAAVELTRRHIGRGVRLYYIGGEVFAECLSDSAIFVQSPNCNQRYGWHPATVCKIPPGCNLKIFNNQEFAALLAQSVNQGFEAVYQLTRMCTIRMSFVKGWGAEYRRQTVTSTPCWIELHLNGPLQWLDKVLTQMGSPSIRCSSVS
# Target: FOXO1 (mouse (endogenous in MIN6)), Q9R1E0
# Assay: co-IP; untransfected MIN6 cells treated with 5 ng/ml TGF-β1 and 0.5 mM palmitate for 24 h; IP with rabbit anti-FOXO1, blot with mouse anti-Smad3 (endogenous proteins)
# Details: remark: other sources report otherwise
binder,measurement,value
B1,binding,binds

# Reference: publication PMC7070087
